Laboratory results published in patent publication US20090022803A1, “Oral Formulations For Delivery of Catecholic Butanes Including Ndga Compounds” (priority 2005, published 2009).
Where two headings read alike, the source gives them in different places. This continues a long series; more values of the same kind are listed elsewhere.

Format: physicochemical
Conditions: for Dissolution After Cool Down: after heating at 60° C.
Protocol: A 10 mL solution of M4N at a concentration of about 10 mg/mL in 40% BP-β-CD was made as follows. About 10 mL of the 40% HP-β-CD solution were added to a glass beaker containing a stir bar. The beaker was placed on a magnetic plate and the stir bar was set to stir at medium speed. About […] of M4N were slowly added to the 40% HP-β-CD in the center of the beaker with the aid of a spatula. The M4N/40% HP-β-CD mixture was stirred for 2 hr or until all M4N was uniformly suspended without any clumps being present. The M4N/40% HP-β-CD mixture was optionally heated at 80° C. for about 30 min. (or longer if a larger volume of solution was desired, for example, 1 hr at 80° C. for 100 mL of the M4N/HP-β-CD mixture), or longer as needed to ensure complete dissolution of M4N. […] The final M4N/40% HP-β-CD solution was stored at room temperature and was kept protected from light. This process may be scaled up or down to obtain the requisite volume or concentration of M4N. Formulations containing M4N in other cyclodextrin solutions may be similarly made, such as, for example, by substituting HP-β-CD in the process described above with other cyclodextrins. […]
A 10 mL solution of M4N at a concentration of about 10 mg/mL in 50% HP-β-CD/0.5% HPMC was made as follows. About 10 mL of the 50% HP-β-CD/0.5% HPMC solution were added to a glass beaker containing a stir bar. The beaker was placed on a magnetic plate and the stir bar was set to stir at medium speed. About 100 mg of M4N were slowly added to the 50% HP-β-CD/0.5% HPMC in the center of the beaker with the aid of a spatula. The M4N/50% HP-β-CD/0.5% HPMC mixture was stirred for 24 hr or until all M4N was uniformly suspended without any clumps being present. The M4N/50% HP-β-CD/0.5% HPMC mixture was heated at about 90° C. for about 30 min. (or longer if a larger volume of solution was desired, for example, 1 hr at 90° C. for 500 mL of the M4N/50% HP-β-CD/0.5% HPMC mixture), or longer as needed to ensure complete dissolution of M4N. […] The final M4N/50% HP-β-CD/0.5% HPMC solution was stored at room temperature and was kept protected from light.
A 10 mL solution of M4N at a concentration of about 20 mg/mL in 5% EC (w/v) (the “EC formulation”) was made as follows. About 10 mL of 5% EC formulation, made as described above, were added to a glass beaker containing a stir bar. The beaker was placed on a magnetic plate and the stir bar was set to stir at medium speed, and covered with a round Teflon® cover. About 200 mg of M4N were slowly added to the 5% EC formulation in the center of the beaker with the aid of a spatula to prevent M4N from sticking to the beaker wall. The M4N/EC mixture was stirred for 2 hr or until all M4N had dissolved or was uniformly suspended without any clumps being present. The M4N/EC mixture was heated at about 60° C. for about 30 min. (or longer if a larger volume of solution was desired, for example, 1 hr at 60° C. for 500 mL of the M4N/EC mixture), or longer as needed to ensure complete dissolution of M4N. […] The final M4N/EC solution was stored at room temperature and was kept protected from light.
A 10 mL solution of M4N at a concentration of about 50 mg/mL in sesame oil was made as follows. About 10 mL of sesame oil were added to a glass beaker containing a stir bar. The beaker was placed on a magnetic plate and the stir bar was set to stir at medium speed. About 500 mg of M4N were slowly added to the sesame oil in the center of the beaker with the aid of a spatula to prevent M4N from sticking to the beaker wall. The M4N/sesame oil mixture was stirred for about 2 hr or until all M4N had dissolved or was uniformly suspended without any clump being present. The M4N/sesame oil mixture was heated at about 60° C. for about 30 min. (or longer if a larger volume of solution was desired, for example, 1 hr at 60° C. for 500 mL of the M4N/sesame oil mixture), or longer as need to ensure complete dissolution of M4N. […]

[1] = Glycerol Monoleate 100% (w/v), M4N 1.00 mg/ml
[2] = Glycerol Monoleate 100% (w/v), M4N 5.0 mg/ml
[3] = Glycerol Monoleate 100% (w/v), M4N 10.0 mg/ml
[4] = Glycerol Monoleate 100% (w/v), M4N 12.0 mg/ml
[5] = Glycerol Monoleate 100% (w/v), M4N 15.0 mg/ml
[6] = Glycerol Monoleate 100% (w/v), M4N 17.5 mg/ml
[7] = Glycerol Monoleate 100% (w/v), M4N 20.0 mg/ml
[8] = Glycerol Monoleate 100% (w/v), M4N 25.0 mg/ml
[9] = Glycerol Monoleate 100% (w/v), M4N 30.0 mg/ml
[10] = Glycerol Monoleate 100% (w/v), M4N 40.0 mg/ml
[11] = Glycerol Monoleate 100% (w/v), M4N 50.0 mg/ml
[12] = Glycerol Monoleate 100% (w/v), M4N 60.0 mg/ml
[13] = Glycerol Monoleate 100% (w/v), M4N 65.0 mg/ml
[14] = Glycerol Monoleate 100% (w/v), M4N 70.0 mg/ml
[15] = Glycerol Monoleate 100% (w/v), M4N 80.0 mg/ml
[16] = Glycerol Monoleate 100% (w/v), M4N 100.0 mg/ml
[17] = Glycerol Monoleate 100% (w/v), M4N 200.0 mg/ml
[18] = Glycerol Monoleate 100% (w/v), M4N 300.0 mg/ml
[19] = Glycerol Monostearate 15% (w/v) solution in water, M4N 60 mg/mL
Wherever Dissolution After Cool Down is given: key: N represents 'No'; Y represents 'Yes.'.

COc1ccc(C[C@@H](C)[C@@H](C)Cc2ccc(OC)c(OC)c2)cc1OC [Formulation M4N, meso-1,4-bis(3,4-dimethoxyphenyl)-2,3-dimethylbutane]
Dissolution After Heating (Glycerol Monoleate 100% (w/v), M4N 0.25 mg/ml, heating at 60° C.): Y at 60 °C | Dissolution After Rotation [1]: N | Dissolution After Cool Down [1]: Suspension | Dissolution After Heating (Glycerol Monoleate 100% (w/v), M4N 1.00 mg/ml, heating at 60° C.): Y at 60 °C | Dissolution After Rotation [2]: N | Dissolution After Cool Down [2]: Suspension | Dissolution After Heating (Glycerol Monoleate 100% (w/v), M4N 5.0 mg/ml, heating at 60° C.): Y at 60 °C | Dissolution After Rotation [3]: N | Dissolution After Cool Down [3]: Suspension | Dissolution After Heating (Glycerol Monoleate 100% (w/v), M4N 10.0 mg/ml, heating at 60° C.): Y at 60 °C | Dissolution After Rotation [4]: N | Dissolution After Cool Down [4]: Suspension | Dissolution After Heating (Glycerol Monoleate 100% (w/v), M4N 12.0 mg/ml, heating at 60° C.): Y at 60 °C | Dissolution After Rotation [5]: N | Dissolution After Cool Down [5]: Suspension | Dissolution After Heating (Glycerol Monoleate 100% (w/v), M4N 15.0 mg/ml, heating at 60° C.): Y at 60 °C | Dissolution After Rotation [6]: N | Dissolution After Cool Down [6]: Suspension | Dissolution After Heating (Glycerol Monoleate 100% (w/v), M4N 17.5 mg/ml, heating at 60° C.): Y at 60 °C | Dissolution After Rotation [7]: N | Dissolution After Cool Down [7]: Suspension | Dissolution After Heating (Glycerol Monoleate 100% (w/v), M4N 20.0 mg/ml, heating at 60° C.): Y at 60 °C | Dissolution After Rotation [8]: N | Dissolution After Cool Down [8]: Suspension | Dissolution After Heating (Glycerol Monoleate 100% (w/v), M4N 25.0 mg/ml, heating at 60° C.): Y at 60 °C | Dissolution After Rotation [9]: N | Dissolution After Cool Down [9]: Suspension | Dissolution After Heating (Glycerol Monoleate 100% (w/v), M4N 30.0 mg/ml, heating at 60° C.): Y at 60 °C | Dissolution After Rotation [10]: N | Dissolution After Cool Down [10]: Suspension | Dissolution After Heating (Glycerol Monoleate 100% (w/v), M4N 40.0 mg/ml, heating at 60° C.): Y at 60 °C | Dissolution After Rotation [11]: N | Dissolution After Cool Down [11]: Suspension | Dissolution After Heating (Glycerol Monoleate 100% (w/v), M4N 50.0 mg/ml, heating at 60° C.): Y at 60 °C | Dissolution After Rotation [12]: N | Dissolution After Cool Down [12]: Suspension | Dissolution After Heating (Glycerol Monoleate 100% (w/v), M4N 60.0 mg/ml, heating at 60° C.): Y at 60 °C | Dissolution After Rotation [13]: N | Dissolution After Cool Down [13]: Suspension | Dissolution After Heating (Glycerol Monoleate 100% (w/v), M4N 65.0 mg/ml, heating at 60° C.): Y at 60 °C | Dissolution After Rotation [14]: N | Dissolution After Cool Down [14]: Suspension | Dissolution After Heating (Glycerol Monoleate 100% (w/v), M4N 70.0 mg/ml, heating at 60° C.): Y at 60 °C | Dissolution After Rotation [15]: N | Dissolution After Cool Down [15]: Suspension | Dissolution After Heating (Glycerol Monoleate 100% (w/v), M4N 80.0 mg/ml, heating at 60° C.): Y at 60 °C | Dissolution After Rotation [16]: N | Dissolution After Cool Down [16]: Suspension | Dissolution After Heating (Glycerol Monoleate 100% (w/v), M4N 100.0 mg/ml, heating at 60° C.): Y at 60 °C | Dissolution After Rotation [17]: N | Dissolution After Cool Down [17]: Suspension | Dissolution After Heating (Glycerol Monoleate 100% (w/v), M4N 200.0 mg/ml, heating at 60° C.): Y at 60 °C | Dissolution After Rotation [18]: N | Dissolution After Cool Down [18]: Suspension | Dissolution After Heating (Glycerol Monoleate 100% (w/v), M4N 300.0 mg/ml, heating at 60° C.): Y at 60 °C | Dissolution After Heating [19]: N | Dissolution After Rotation [19]: N | Dissolution After Rotation (Labrafil ® 100%, M4N 60 mg/mL): N | Dissolution After Cool Down (Labrafil ® 100%, M4N 60 mg/mL): Y | Dissolution After Heating (Labrafil ® 100%, M4N 60 mg/mL, heating at 60° C.): Y at 60 °C | Dissolution After Rotation (Labrafil ® 100%, M4N 200 mg/mL): N | Dissolution After Cool Down (Labrafil ® 100%, M4N 200 mg/mL): Creamy | Dissolution After Heating (Labrafil ® 100%, M4N 200 mg/mL, heating at 60° C.): Y at 60 °C | Dissolution After Rotation (Labrasol ® 100%, M4N 50 mg/mL): N | Dissolution After Cool Down (Labrasol ® 100%, M4N 50 mg/mL): Y | Dissolution After Heating (Labrasol ® 100%, M4N 50 mg/mL, heating at 60° C.): Y at 60 °C | Dissolution After Rotation (Labrasol ® 100%, M4N 60 mg/mL): N | Dissolution After Cool Down (Labrasol ® 100%, M4N 60 mg/mL): Y | Dissolution After Heating (Labrasol ® 100%, M4N 60 mg/mL, heating at 60° C.): Y at 60 °C | Dissolution After Rotation (Labrasol ® 100%, M4N 70 mg/mL): N | Dissolution After Cool Down (Labrasol ® 100%, M4N 70 mg/mL): Y | Dissolution After Heating (Labrasol ® 100%, M4N 70 mg/mL, heating at 60° C.): Y at 60 °C | Dissolution After Rotation (Labrasol ® 100%, M4N 80 mg/mL): N | Dissolution After Cool Down (Labrasol ® 100%, M4N 80 mg/mL): Y | Dissolution After Heating (Labrasol ® 100%, M4N 80 mg/mL, heating at 60° C.): Y at 60 °C | Dissolution After Rotation (Labrasol ® 100%, M4N 90 mg/mL): N | Dissolution After Cool Down (Labrasol ® 100%, M4N 90 mg/mL): suspension | Dissolution After Heating (Labrasol ® 100%, M4N 90 mg/mL, heating at 60° C.): Y at 60 °C | Dissolution After Rotation (Labrasol ® 100%, M4N 100 mg/mL): N | Dissolution After Cool Down (Labrasol ® 100%, M4N 100 mg/mL): suspension | Dissolution After Heating (Labrasol ® 100%, M4N 100 mg/mL, heating at 60° C.): Y at 60 °C | Dissolution After Rotation (Labrasol ® 100%, M4N 200 mg/mL): N | Dissolution After Cool Down (Labrasol ® 100%, M4N 200 mg/mL): suspension | Dissolution After Heating (Labrasol ® 100%, M4N 200 mg/mL, heating at 60° C.): Y at 60 °C | Dissolution After Rotation (M4N 1 mg/mL in 1% CMC (High Viscosity)): N | Dissolution After Heating (M4N 1 mg/mL in 1% CMC (High Viscosity), 90° C.): N at 90 °C | Dissolution After Heating (M4N 1 mg/mL in 2% MC (Low viscosity), 90° C.): N at 90 °C | Dissolution After Rotation (M4N 1 mg/mL in 4% CMC (Low Viscosity)): N | Dissolution After Heating (M4N 1 mg/mL in 4% CMC (Low Viscosity), 90° C.): N at 90 °C | Dissolution After Heating (M4N 1 mg/mL in 50% HP-β-CD, 0.5% HPMC, 90° C.): Y at 90 °C | Dissolution After Rotation (M4N 1 mg/mL in Corn Oil): N
